This passage reports binding results from publication PMC11622535.

Results are given in words; binding and its absence hold for the method and conditions named. Binding seen in cells or lysates may run through a third protein. Some entries that bind do so weakly or less than the wild type. Tags and fused reporters may be left off the sequences shown.

The target of this test is T1, CLuc-CesA4 (Arabidopsis cellulose synthase A4) (Arabidopsis thaliana) (UniProt Q84JA6).
T1 sequence: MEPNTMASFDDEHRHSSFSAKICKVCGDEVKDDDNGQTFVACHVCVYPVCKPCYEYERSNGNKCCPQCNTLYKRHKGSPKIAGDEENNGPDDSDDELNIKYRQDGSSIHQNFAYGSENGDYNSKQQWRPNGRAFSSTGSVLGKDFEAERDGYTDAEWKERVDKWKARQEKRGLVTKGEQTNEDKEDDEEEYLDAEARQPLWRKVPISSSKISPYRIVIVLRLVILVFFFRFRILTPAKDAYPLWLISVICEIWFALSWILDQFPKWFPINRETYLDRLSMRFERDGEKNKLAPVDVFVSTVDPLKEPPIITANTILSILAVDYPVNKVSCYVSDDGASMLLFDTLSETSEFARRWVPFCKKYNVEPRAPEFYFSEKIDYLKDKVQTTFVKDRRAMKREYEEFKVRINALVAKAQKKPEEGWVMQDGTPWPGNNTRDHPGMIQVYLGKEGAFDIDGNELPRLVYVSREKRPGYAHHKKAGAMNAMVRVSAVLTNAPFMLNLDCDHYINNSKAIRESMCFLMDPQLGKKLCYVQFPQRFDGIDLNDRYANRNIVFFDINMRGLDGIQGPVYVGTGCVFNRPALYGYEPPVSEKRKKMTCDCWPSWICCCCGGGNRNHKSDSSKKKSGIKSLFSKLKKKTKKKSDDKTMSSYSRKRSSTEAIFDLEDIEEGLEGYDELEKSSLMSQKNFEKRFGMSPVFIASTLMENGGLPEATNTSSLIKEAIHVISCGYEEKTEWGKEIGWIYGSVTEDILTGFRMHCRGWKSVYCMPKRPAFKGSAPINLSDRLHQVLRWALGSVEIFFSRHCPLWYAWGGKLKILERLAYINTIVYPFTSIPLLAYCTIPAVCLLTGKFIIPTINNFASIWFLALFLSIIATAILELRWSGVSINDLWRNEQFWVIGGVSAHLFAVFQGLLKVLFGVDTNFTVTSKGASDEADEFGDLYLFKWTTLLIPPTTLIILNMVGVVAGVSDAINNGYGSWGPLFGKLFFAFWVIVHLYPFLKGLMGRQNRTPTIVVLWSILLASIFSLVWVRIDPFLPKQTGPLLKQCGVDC
Nature of the test: split reporter; split luciferase complementation; NLuc and CLuc fusions co-expressed in N. benthamiana leaves, luciferase activity imaged 48 h later.

B1: NLuc-CASPL2 (Arabidopsis) (protein, UniProt Q9SQU2 1-199)
chain: MASTENPDPETGKSEPIPASATPPPSSAASFLDCRKIDIITRVLLFSATLTALIVMVTSDQTEMTQLPGVSSPAPVSAEFNDSPAFIYFVVALVVASFYALISTLVSISLLLKPEFTAQFSIYLASLDMVMLGILASATGTAGGVAYIALKGNEEVGWNKICNVYDKFCRYIATSLALSLFASLLLLVLSIWSALSKRT
In the case of B1, the binding result was “binds”.

B2: … STRIP MEMBRANE DOMAIN-LIKE1 (CASPL1), Arabidopsis, split luciferase construct (protein, UniProt Q9FE29 1-193)
chain: MGYETKSTLDTERSTAPGTGTTTKSCSMTQVVLRFVLFAATLTSIVVMVTSKQTKNIFLPGTPIRIPAAEFTNSPALIYFVVALSVACFYSIVSTFVTVSAFKKHSCSAVLLLNLAIMDAVMVGIVASATGAGGGVAYLGLKGNKEVRWGKICHIYDKFCRHVGGAIAVSLFASVVLLLLSIISVLSLYKKIR
In the case of B2, the binding result was “binds”.
